This data set addresses AP2 (AP-2 transcription factor) (UniProt P05549). The data set is described as follows: SPR. Conditions: 5' thiol on the immobilized strand, attached via SSMCC to MUAM gold surface; SPR imaging; binding buffer diluted 1:10 in 20 mM phosphate, 250 mM NaCl, pH 7.78; higher signal than PEG background regions; purified recombinant protein.

Chains of the proteins cited; added tags and fusions are not shown. Lines headed by an entry give the natural chain unless they say otherwise; changes in a name come on top.
UniProt P05549: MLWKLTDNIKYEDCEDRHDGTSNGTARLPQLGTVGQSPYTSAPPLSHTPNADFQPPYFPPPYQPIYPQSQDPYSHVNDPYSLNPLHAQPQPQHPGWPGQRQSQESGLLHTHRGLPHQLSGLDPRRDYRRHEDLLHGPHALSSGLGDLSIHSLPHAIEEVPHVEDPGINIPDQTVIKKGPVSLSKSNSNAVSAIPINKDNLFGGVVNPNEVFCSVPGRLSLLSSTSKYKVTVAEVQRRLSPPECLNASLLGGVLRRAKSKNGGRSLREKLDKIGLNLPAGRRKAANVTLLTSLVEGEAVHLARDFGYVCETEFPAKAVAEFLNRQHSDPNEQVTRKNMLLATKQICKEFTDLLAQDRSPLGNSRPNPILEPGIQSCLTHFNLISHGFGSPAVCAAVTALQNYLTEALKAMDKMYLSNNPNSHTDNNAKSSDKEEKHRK

The exact form of at least one protein or probe is not confirmed.

As for “TTTTTTTTTTTTTTTGATCGAACTGACCGCCCGCGGCCCGT / ACGGGCCGCGGGCGGTCAGTTCGATC [AP2 consensus duplex (immobilized oligo + complement)]”, the binding result is listed as “binds”.
